# Assay results as given in the supplement of paper PMC8728848.
# This is one part of the list.
# B1: PX14379D-pdi-530-26-530 (Parabacteroides distasonis) (protein)
# chain: DETVYDKLPADDFGQSTAELNALIGNSHNTMKKFWTEYMHLSECSGSMAVTPTRRGGDWYDGGQYREIYMHTWTSQTSRVKSAWKAATEAIGTCNEAIRKLQNSEILTEEEKAQDVADLRGVRAFWIYVMMDYWGNIPLLTEFHPTDKVFPGNSSRQEVFDWLIQEVEEIKDICPPATTENYGSFTQGAAYSLLAKLYLNAEAWGVTFSGNAYQKVIDNCDKVMAMGYILEPNWKDNFSVTNENSKEAILAATFSSSDTGNDGNVKNELHNNTLHYKDYLSLGITASGTWNGICAQPEYVRLFDEEDARLDGTFLTGLMIDKSTGKPIMTDHNNELNHTIDVNMIPGMEYDGTNWSAVEQHDGARCFKWEFASDLTSSMGNDFHIFRLADIYLMKAEALLRGGGSVSEATALVNTIRERGYGNSDHNYATVTLKEVQLERRLELAWEVYSRQDDIRFGCFTTGMWPQSNCERKADDYLKLLPVSQDAWQVNPNLKQNPGYAAFSK
# Key:
# Assay in all cases: glycan array binding signal (z-score within array); higher = stronger binding
# Conditions in all cases: glycan notation: IUPAC condensed, linker removed
# [1] = target: Gal(b1-4)GlcNAc(b1-6)GalNAc
# Method in brief: (§1)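 Columns mapping to the same glycan were averaged after glycan names were converted to IUPAC-condensed notation. The data come from 3228 arrays in the Consortium for Functional Glycomics database, limited to those with an available protein sequence. Binding is reported as a within-array Z-score averaged across arrays of one protein sequence and across linkers.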
# [2] = target: Gal(b1-4)GlcNAc(b1-6)[Gal(b1-3)]GalNAc
# Method in brief: as §1
# [3] = target: Gal(b1-4)GlcNAc(b1-6)[Gal(b1-4)GlcNAc(b1-3)]GalNAc
# Method in brief: as §1
# Gal(b1-4)GlcNAc6P = target: Gal(b1-4)GlcNAc6P
# Method in brief: as §1
# Gal(b1-6)Gal = target: Gal(b1-6)Gal
# Method in brief: as §1
# Gal3S(b1-3)GalNAc = target: Gal3S(b1-3)GalNAc
# Method in brief: as §1
# Gal3S(b1-3)GlcNAc = target: Gal3S(b1-3)GlcNAc
# Method in brief: as §1
# [4] = target: Gal3S(b1-3)[Fuc(a1-4)]GlcNAc
# Method in brief: as §1
# Gal3S(b1-4)Glc = target: Gal3S(b1-4)Glc
# Method in brief: as §1
# Gal3S(b1-4)Glc6S = target: Gal3S(b1-4)Glc6S
# Method in brief: as §1
# Gal3S(b1-4)GlcNAc = target: Gal3S(b1-4)GlcNAc
# Method in brief: as §1
# [5] = target: Gal3S(b1-4)[Fuc(a1-3)]Glc6S
# Method in brief: as §1
# [6] = target: Gal3S(b1-4)[Fuc(a1-3)]GlcNAc
# Method in brief: as §1
# [7] = target: Gal3S(b1-4)[Fuc(a1-3)]GlcNAc6S
# Method in brief: as §1
# Gal3S4S(b1-4)GlcNAc = target: Gal3S4S(b1-4)GlcNAc
# Method in brief: as §1
# Gal3S6S(b1-4)GlcNAc = target: Gal3S6S(b1-4)GlcNAc
# Method in brief: as §1
# Gal3S6S(b1-4)GlcNAc6S = target: Gal3S6S(b1-4)GlcNAc6S
# Method in brief: as §1
# Gal4S(b1-4)GlcNAc = target: Gal4S(b1-4)GlcNAc
# Method in brief: as §1
# Gal4S6S(b1-4)GlcNAc = target: Gal4S6S(b1-4)GlcNAc
# Method in brief: as §1
# Gal6P(b1-4)GlcNAc = target: Gal6P(b1-4)GlcNAc
# Method in brief: as §1
# Gal6S(b1-3)GlcNAc = target: Gal6S(b1-3)GlcNAc
# Method in brief: as §1
# Gal6S(b1-3)GlcNAc6S = target: Gal6S(b1-3)GlcNAc6S
# Method in brief: as §1
# Gal6S(b1-4)Glc = target: Gal6S(b1-4)Glc
# Method in brief: as §1
binder,measurement,setting,value
B1,glycan array binding signal (z-score),[1],0.905
same,glycan array binding signal (z-score),[2],-0.528
same,glycan array binding signal (z-score),[3],0.558
same,glycan array binding signal (z-score),Gal(b1-4)GlcNAc6P,-0.733
same,glycan array binding signal (z-score),Gal(b1-6)Gal,-0.718
same,glycan array binding signal (z-score),Gal3S(b1-3)GalNAc,0.091
same,glycan array binding signal (z-score),Gal3S(b1-3)GlcNAc,-0.593
same,glycan array binding signal (z-score),[4],0.157
same,glycan array binding signal (z-score),Gal3S(b1-4)Glc,2.44
same,glycan array binding signal (z-score),Gal3S(b1-4)Glc6S,0.872
same,glycan array binding signal (z-score),Gal3S(b1-4)GlcNAc,0.271
same,glycan array binding signal (z-score),[5],-0.43
same,glycan array binding signal (z-score),[6],-0.141
same,glycan array binding signal (z-score),[7],1.22
same,glycan array binding signal (z-score),Gal3S4S(b1-4)GlcNAc,-0.454
same,glycan array binding signal (z-score),Gal3S6S(b1-4)GlcNAc,0.117
same,glycan array binding signal (z-score),Gal3S6S(b1-4)GlcNAc6S,2.52
same,glycan array binding signal (z-score),Gal4S(b1-4)GlcNAc,-0.228
same,glycan array binding signal (z-score),Gal4S6S(b1-4)GlcNAc,-0.101
same,glycan array binding signal (z-score),Gal6P(b1-4)GlcNAc,-0.751
same,glycan array binding signal (z-score),Gal6S(b1-3)GlcNAc,0.293
same,glycan array binding signal (z-score),Gal6S(b1-3)GlcNAc6S,2.34
same,glycan array binding signal (z-score),Gal6S(b1-4)Glc,-0.874

# Some of the entries so far, with tabs:
binder	measurement	setting	value
B1	glycan array binding signal (z-score)	Gal3S(b1-4)Glc6S	0.872
same	glycan array binding signal (z-score)	Gal3S(b1-4)GlcNAc	0.271
